# PubChem BioAssay AID540303 (National Center for Advancing Translational Sciences (NCATS), 2011)
# The whole screen tested about 330,000 compounds, of which about 1,000 (0.3%) were called active. Inconclusive means that the source gave no clear call. Such entries were picked first, then a sample of the others. Calls follow the shape of the dose curve; as a rule, active = well fitted inhibition curve with a large enough effect; inconclusive = small, poorly fitted or top-dose-only effect; inactive = no such curve, though single readings can be large or run the other way; tested in mouse RAW 264.7 cells. A potency beside an inconclusive call is a rough fit, not a confirmed value.
# Assay: qHTS for Inhibitors of Cell Surface uPA Generation; also: nearly all actives have a fitted effect of over 55% in size
# Details: cell surface uPA generation assay; series mostly up to 38.3 µM
# Method in brief: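 Validation set in qHTS format. RAW 264.7 cells were pre-plated overnight and then exposed to compounds (up to 38.3 uM final) for 24 h at 37 C in 5% CO2, followed by a luminescent ATP-Lite measurement.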
# Potency is read from the fitted curve at half-maximal effect.
row,Compound,Potency
1,O=C(c1cnn(-c2ccccc2)c1)c1ccccc1O,inactive
2,O=C1CC(Sc2ncccn2)C(=O)N1c1ccccc1C(F)(F)F (configuration not stated),inactive
3,Nc1nsc2ccccc12,"inconclusive: 2 µM [inhibitor, partial curve]"
4,CN1/C(=C/c2cccc[n+]2C)Sc2ccccc21,"inconclusive: 7.94 µM [inhibitor, single point]"
5,CC(C)(C)NCc1cc(Cl)ccc1OCc1cccs1,inactive
6,Cc1ccc(CN2C(=O)C(CC(C)C)Nc3ncnc(N4CCN(c5ccccn5)CC4)c32)cc1 (configuration not stated),"inconclusive: 7.94 µM [inhibitor, single point]"
7,CSc1ccc(C2NN=C(c3ccccc3)S2)cc1 (configuration not stated),inactive
8,COc1cccc(NC(=O)CN(C)C(=O)c2cccc(S(=O)(=O)N3CCN(c4ccc(F)cc4)CC3)c2)c1,"inconclusive: 7.08 µM [inhibitor, single point]"
9,CCOc1ccc(C(=O)NCC(=O)OCCN2C(=O)c3ccccc3C2=O)cc1OCC,inactive
10,CC(/C=C/c1ccco1)=N/NC(=O)C1COc2ccccc2O1 (configuration not stated),"inconclusive: 12.6 µM [inhibitor, single point]"
11,Cn1cnc([N+](=O)[O-])c1S(=O)(=O)c1ccc(Cl)cc1,inactive
12,Cc1ccccc1-c1nc(CS(=O)(=O)CC(=O)NCCCN2CC(C)CC(C)C2)c(C)o1 (configuration not stated),"inconclusive: 2.82 µM [inhibitor, partial curve, poor fit]"
13,O=C(CS(=O)(=O)c1ccccc1)NCc1ccc(Cl)cc1,"inconclusive: 1.26 µM [inhibitor, partial curve, poor fit]"
14,CCOc1ccc2nc(NC(=O)c3cccc(-c4cc5ccccc5oc4=O)c3)sc2c1,inactive
15,CC(C)(C)NC(=O)CSc1nnc(NC(=O)c2ccccc2Cl)s1,"inconclusive: 31.6 µM [inhibitor, partial curve, poor fit]"
16,Cc1ccc(C(=O)Nc2nc(=O)n(C(=O)c3ccccc3C)s2)cc1,inactive
17,COc1ccc(CCNS(=O)(=O)c2ccc(Cl)cc2)cc1OC,inactive
18,COc1cc(C(=O)NCC(c2ccc(F)cc2)N2CCOCC2)ccc1OCc1ccccc1Cl (configuration not stated),"inconclusive: 22.4 µM [inhibitor, single point]"
19,COc1ccc2sc(-c3ccc(N(C)C)cc3)c(C#Cc3cncn3C)c2c1,"inconclusive: 7.08 µM [inhibitor, single point]"
20,COc1ccc(C(=O)Nc2ccc3c(c2)n(C)c(=O)n3C)cc1OC,"inconclusive: 12.6 µM [inhibitor, single point]"
21,O=C(NCc1cccnc1)c1ccc([N+](=O)[O-])o1,"inconclusive: 11.2 µM [inhibitor, single point]"
22,CN(c1ccc(C(=O)N2CCCCCC2)cc1)S(=O)(=O)c1ccc(Cl)cc1,"inconclusive: 4.47 µM [inhibitor, partial curve, poor fit]"
23,O=C(Nc1nnc(-c2ccccc2Cl)o1)c1nc2ccccc2s1,"inconclusive: 22.4 µM [inhibitor, single point]"
24,O=C(NCCO)c1ccc2c3n(nc2c1)-c1ccc(Cl)cc1CO3,"inconclusive: 5.01 µM [inhibitor, partial curve, poor fit]"

# Among those listed so far, 2 have a tert-butyl group.
row,Compound,Potency
5,CC(C)(C)NCc1cc(Cl)ccc1OCc1cccs1,inactive
15,CC(C)(C)NC(=O)CSc1nnc(NC(=O)c2ccccc2Cl)s1,"inconclusive: 31.6 µM [inhibitor, partial curve, poor fit]"

# 2 of the compounds above, with tabs.
row	Compound	Potency
6	Cc1ccc(CN2C(=O)C(CC(C)C)Nc3ncnc(N4CCN(c5ccccn5)CC4)c32)cc1 (configuration not stated)	inconclusive: 7.94 µM [inhibitor, single point]
7	CSc1ccc(C2NN=C(c3ccccc3)S2)cc1 (configuration not stated)	inactive

# The list goes on:

row,Compound,Potency
1,CC(C)(C)c1ccc(C(=O)c2c[nH]c(C(=O)NCc3ccco3)c2)cc1,inactive
2,COc1cc(C(=O)NNC(=O)CCOc2cccc(Br)c2)cc(OC)c1OC,"inconclusive: 0.0089 µM [inhibitor, full curve, poor fit]"
3,COc1ccc(Cn2c(=O)c3[nH]cnc3n(-c3ccc(C)cc3)c2=O)cc1,"inconclusive: 4.47 µM [inhibitor, partial curve, poor fit]"
4,COc1ccc(-c2[nH]ncc2CN2CCCO2)cc1F,inactive
5,COc1ccc(NC(=O)CSc2nc3ccccc3nc2N2CCCCC2)cc1,"inconclusive: 2.82 µM [inhibitor, single point]"
6,Cc1ccc(C(=O)c2c3ccc([N+](=O)[O-])cc3[n+]([O-])n2CCC(N)=O)cc1,active: 1.41 µM
7,Cc1ccc(C(=O)N/N=C/c2c(O)ccc3ccccc23)cn1,"inconclusive: 5.01 µM [inhibitor, partial curve, poor fit]"
8,O=C1CCCC(=O)N1c1ccc(O)cc1,inactive
9,O=C(c1ccc([N+](=O)[O-])s1)N1CCN(c2cccc(Cl)c2)CC1,"inconclusive: 10 µM [inhibitor, single point]"
10,O=C(CN1C(=O)NC2(CCCC2)C1=O)Nc1cc(C(F)(F)F)ccc1N1CCOCC1,"inconclusive: 1.58 µM [inhibitor, full curve, poor fit]"
11,O=C(N/N=C1\CC(c2ccccc2)Oc2ccccc21)c1cccnc1 (configuration not stated),inactive
12,CCOC(=O)c1ccc(Nc2cc(C)nc(-c3ccccc3)n2)cc1,active: 5.01 µM
13,CC1CCCN(CCOCCSc2ccccc2)C1 (configuration not stated),inactive
14,Cc1cc(=O)oc2cc(OCC(=O)NC3CC(C)(C)NC(C)(C)C3)c(Cl)cc12,"inconclusive: 8.91 µM [inhibitor, single point]"
15,O=C(O)CN1C(=O)c2cccc3c(Br)ccc1c23,inactive
16,CCOc1ccccc1CNC(=O)Cn1nc(C)c2c(C)n(-c3ccc(C)cc3)nc2c1=O,"inconclusive: 11.2 µM [inhibitor, partial curve, poor fit]"
17,FC(F)(F)c1cnc(N2CCCN(C(=S)Nc3ccccc3)CC2)c(Cl)c1,inactive
18,N#Cc1ccc(/C=C/C(=O)c2cccnc2)cc1,"inconclusive: 28.2 µM [inhibitor, single point]"
19,C/C(=N\NC(=O)c1cc(-c2cccs2)nc2ccccc12)c1ccccn1,"inconclusive: 1.41 µM [inhibitor, full curve, poor fit]"
20,COc1cccc(CNc2ccc3[nH]c(=O)[nH]c3c2)c1OCc1ccccc1F,"inconclusive: 10 µM [inhibitor, partial curve, poor fit]"
21,CCc1nnc(NC(=O)CSc2ccc(-c3cccs3)nn2)s1,inactive
22,COc1ccc(N2Cc3ccccc3C2=O)cc1,inactive
23,Cc1ccc2sc(N(CCCN(C)C)C(=O)c3ccc(Br)s3)nc2c1C,inactive
